Data: the supplement of paper PMC10338343
± gives the standard deviation. The list shows a part of the results. Many of these values have a large error.

System: EfPiwi piRISC loaded with L1MC piRNA (26 nt)
Experiment: pre-steady-state target cleavage rate (min^-1); guide: L1MC piRNA 5'p-UAACUAAAUACUAUGCAAGCUGUAGG; MIWI and MILI are mouse PIWI proteins and EfPiwi is from a freshwater sponge; tags in brackets are library labels; higher = faster piRNA-guided slicing of the target
Conditions: auxiliary factor: 500 nM Ephydatia muelleri Gtsf1
In short: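 Active affinity-purified piRISC carrying one synthetic guide (1 nM) was mixed with a transcribed, DNA-blocked target RNA library […] in HEPES–potassium acetate buffer at 33 °C for 0–8 or 0–960 min, with or without 500 nM GTSF1 partner protein. Uncleaved targets were then sequenced and normalised to depth and to weakly complementary targets. Three trials were pooled, and k3 was capped at 0.0001 min^-1. A burst-and-steady-state fit was applied to obtain the pre-steady-state cleavage rate.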

Row | Sequence | pre-steady-state target cleavage rate
1 | UCCUGCUACAGCUUGCAAAGUAUUUUGUUA | 0.00625 ± 0.0028
2 | UCCUCCUACACGCUUGCAUAGUAUUUAGUUA | 0.00856 ± 0.003
3 | UCCUCGUACACCUUGCAUAGUAUUUAGUUA | 0.1 ± 0.029
4 | UCCUCCUACAGCUAGCAUAGUAUUAAGUUA | 0.00633 ± 0.0029
5 | UCCUGCUACAGCUUGGAUAGUAAUUAGUUA | 0.00773 ± 0.0024
6 | UCCUGGAUGUCGUUGCAUAGUAUUUAGUGA | 0.00075 ± 0.0068
7 | UCCUGCUACAGCUUGCAUAGUAUUUACGUUA | 0.00429 ± 0.002
8 | UCCUGGAUGAGCUUGCAUAGUAUUUAGUUC [g2:g21:cont:t1C] | 0.039 ± 0.01
9 | UCCUGGAUCAGCUUGGUUAGUAUUUAGUUA | 0.00217 ± 0.0034
10 | UCCUGGAUGAGCUUGCAUUGUAUUAAGUUA | 0.0041 ± 0.0035
11 | UCCUCCGACAGCUUGCAUAGUAUUUAGUUA | 0.101 ± 0.026
12 | UCCUGGUACAGCUUGCAUAUUAUUUAGUUA | 0.00464 ± 0.0037
13 | UCCUGGAUGUCGAACGUAUCUAUGUAGUUA | < 0.0001
14 | UCCUGGAUGAGCUUGCUUAGUAUUUUGUUA | 0.00206 ± 0.0039
15 | UCCUGGAUCAGCUUGCAUAGUUUUUAGUAA | 0.00477 ± 0.0025
16 | UCCUGGAUCAGCUUAGCAUAGUAUUUAGUUA | 0.0874 ± 0.019
17 | UCCUGGAUCAUGCUUGCAUAGUAUUUAGUUA | 0.0911 ± 0.025

Row | Sequence | pre-steady-state target cleavage rate
18 | UCCUGGAUGAGCUGUGCAUAGUAUUUAGUUA | 0.0255 ± 0.0063
19 | UCCUGGUAACAGCUUGCAUAGUAUUUAGUUA | 0.0495 ± 0.011
20 | UCCUCCUACAGCUUGCAUAGUAUUUAGUA | 0.00701 ± 0.0026
21 | UCCUGGAUGUGCUUGGUUAGUAUUUAGUUA | 0.000359 ± 0.018
22 | UCCUGCUACUGCUUGCAUAGUAAUUAGUUA | 0.00587 ± 0.0019
23 | UCCUGCUAGAGCUAGCAUAGUAUUUAGUUA | 0.00618 ± 0.0016
24 | UCCUGGAUCAGCAUGCAUACUAUUUAGUUA | 0.00409 ± 0.0018
25 | UCCUGGAUCACCUUGCAUAGUAUUUAGUUA | 0.018 ± 0.0063
26 | UCCUGGAUGUCGAAGCAUUGUAUUUAGUAA | 0.000589 ± 0.011
27 | UCCUCCUACAGCUUGAAUAGUAUUUAGUUA | 0.0651 ± 0.017
28 | UCCUCCUACAGCUUGCAUAGUAUAAUGUUA | 0.00388 ± 0.0022
29 | UCCUCCUAACAGCUUGCAUAGUAUUUAGUUA | 0.0133 ± 0.0051
30 | UCCUGGAUCAGCUUGCAAAGUUUUUAGUUA | 0.00491 ± 0.0036
31 | UCCUGGUACAGCAUGCUUAGUAUUUAGUUA | 0.00778 ± 0.0028
32 | UCCUGGUAGUCCUUGCAUAGUAUUUAGUAA | 0.00627 ± 0.0035
33 | UCCUGGAUCACCUUGCAUAGUAUUAAGUUA | 0.00509 ± 0.0039

Same assay, conditions: auxiliary factor: none (no Gtsf1)

Row | Sequence | pre-steady-state target cleavage rate
34 | UCCUCCUACAGCUUGCUUAGUUUUUAGUUA | 0.0017 ± 0.0059
35 | UCCUGGAUGUCGAUGCAUAGAUAAAUCAAA [g11:g17:cont:t1A] | 0.000572 ± 0.011
36 | UCCUGGAACAGCUUGCAUAGUAUUUAGUCA | 0.000531 ± 0.017
37 | UCCUGGAACAGGUUGCAUUGUAUUUAGUUA | 0.000318 ± 0.032
38 | UCCUGGAUGUCGAACGUUAGUAAUAAGUUA | 0.000102 ± 0.039
39 | UCCUGGAACAGCUUGCAUAGUAUGUAGUUA | 0.000453 ± 0.021
40 | UCCUGGAUGAGCAUGCAUAGUAUUUAGUAA | 0.000702 ± 0.015

A few values from the list:
pre-steady-state target cleavage rate with UCCUGGAACAGCUUGCAUAGUAUGUAGUUA is entered as 0.000453 ± 0.021
pre-steady-state target cleavage rate with UCCUGGAACAGCUUGCAUAGUAUUUAGUCA is entered as 0.000531 ± 0.017
pre-steady-state target cleavage rate with UCCUGGAUGUCGAACGUUAGUAAUAAGUUA is entered as 0.000102 ± 0.039
